Results: the supplement of paper PMC10849652
Some of the results follow.

Chains of the proteins cited; added tags and fusions are not shown. Lines headed by an entry give the natural chain unless they say otherwise; changes in a name come on top.
UniProt O00287: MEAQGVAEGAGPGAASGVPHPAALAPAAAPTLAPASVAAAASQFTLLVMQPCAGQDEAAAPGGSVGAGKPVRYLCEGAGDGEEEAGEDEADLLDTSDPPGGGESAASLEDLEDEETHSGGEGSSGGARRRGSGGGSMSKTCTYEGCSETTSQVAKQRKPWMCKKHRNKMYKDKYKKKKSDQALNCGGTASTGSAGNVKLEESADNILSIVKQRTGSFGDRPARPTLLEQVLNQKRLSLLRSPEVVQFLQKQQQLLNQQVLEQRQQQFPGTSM
UniProt Q92546: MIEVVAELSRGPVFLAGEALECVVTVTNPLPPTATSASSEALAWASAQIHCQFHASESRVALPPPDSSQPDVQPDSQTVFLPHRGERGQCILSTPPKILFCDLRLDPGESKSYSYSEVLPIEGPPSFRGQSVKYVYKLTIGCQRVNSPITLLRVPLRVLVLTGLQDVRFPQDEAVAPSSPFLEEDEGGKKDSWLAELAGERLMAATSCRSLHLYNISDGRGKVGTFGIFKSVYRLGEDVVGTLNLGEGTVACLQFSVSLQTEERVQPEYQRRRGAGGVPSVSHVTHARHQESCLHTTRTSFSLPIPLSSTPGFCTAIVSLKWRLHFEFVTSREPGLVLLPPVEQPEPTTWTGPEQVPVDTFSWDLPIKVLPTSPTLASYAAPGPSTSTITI
UniProt Q5T160: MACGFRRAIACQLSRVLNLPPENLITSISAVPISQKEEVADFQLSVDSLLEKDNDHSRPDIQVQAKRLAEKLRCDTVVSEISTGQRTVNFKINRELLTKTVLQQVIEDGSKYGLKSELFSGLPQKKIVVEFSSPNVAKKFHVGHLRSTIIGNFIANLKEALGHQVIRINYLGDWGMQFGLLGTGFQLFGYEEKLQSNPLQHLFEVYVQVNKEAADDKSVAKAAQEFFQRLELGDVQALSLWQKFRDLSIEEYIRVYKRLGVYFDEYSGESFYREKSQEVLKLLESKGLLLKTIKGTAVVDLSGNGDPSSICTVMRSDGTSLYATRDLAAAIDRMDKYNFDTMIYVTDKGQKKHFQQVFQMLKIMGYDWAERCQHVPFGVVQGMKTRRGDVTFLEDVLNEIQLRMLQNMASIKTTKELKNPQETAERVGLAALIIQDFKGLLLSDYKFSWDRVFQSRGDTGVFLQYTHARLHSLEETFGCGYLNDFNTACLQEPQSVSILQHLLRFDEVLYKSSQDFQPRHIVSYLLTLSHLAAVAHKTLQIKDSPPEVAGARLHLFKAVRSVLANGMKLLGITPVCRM
UniProt Q04206, whole entry, looked up: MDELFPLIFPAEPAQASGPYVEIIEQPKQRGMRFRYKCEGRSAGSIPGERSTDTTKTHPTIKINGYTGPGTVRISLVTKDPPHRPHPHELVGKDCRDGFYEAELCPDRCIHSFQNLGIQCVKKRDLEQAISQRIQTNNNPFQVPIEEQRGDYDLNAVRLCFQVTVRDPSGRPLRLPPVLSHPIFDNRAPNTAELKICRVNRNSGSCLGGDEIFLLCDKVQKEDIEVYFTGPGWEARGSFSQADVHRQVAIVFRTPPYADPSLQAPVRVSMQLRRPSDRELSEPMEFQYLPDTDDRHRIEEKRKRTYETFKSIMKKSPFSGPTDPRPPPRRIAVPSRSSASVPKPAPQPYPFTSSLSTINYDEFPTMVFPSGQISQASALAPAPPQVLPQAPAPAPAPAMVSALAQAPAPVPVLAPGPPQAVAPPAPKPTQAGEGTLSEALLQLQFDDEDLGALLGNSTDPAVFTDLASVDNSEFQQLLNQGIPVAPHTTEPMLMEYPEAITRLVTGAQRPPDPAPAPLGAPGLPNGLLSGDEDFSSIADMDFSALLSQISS
UniProt Q9Y644: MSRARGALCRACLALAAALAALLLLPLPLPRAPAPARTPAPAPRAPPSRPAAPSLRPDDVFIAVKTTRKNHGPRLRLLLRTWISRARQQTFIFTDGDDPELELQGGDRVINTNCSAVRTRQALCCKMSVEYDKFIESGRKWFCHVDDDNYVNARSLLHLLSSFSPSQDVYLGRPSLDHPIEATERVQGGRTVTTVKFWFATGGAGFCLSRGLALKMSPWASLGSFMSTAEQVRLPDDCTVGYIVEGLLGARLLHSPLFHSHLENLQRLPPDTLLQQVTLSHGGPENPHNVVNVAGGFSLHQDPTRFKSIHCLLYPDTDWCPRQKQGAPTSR
UniProt Q08999: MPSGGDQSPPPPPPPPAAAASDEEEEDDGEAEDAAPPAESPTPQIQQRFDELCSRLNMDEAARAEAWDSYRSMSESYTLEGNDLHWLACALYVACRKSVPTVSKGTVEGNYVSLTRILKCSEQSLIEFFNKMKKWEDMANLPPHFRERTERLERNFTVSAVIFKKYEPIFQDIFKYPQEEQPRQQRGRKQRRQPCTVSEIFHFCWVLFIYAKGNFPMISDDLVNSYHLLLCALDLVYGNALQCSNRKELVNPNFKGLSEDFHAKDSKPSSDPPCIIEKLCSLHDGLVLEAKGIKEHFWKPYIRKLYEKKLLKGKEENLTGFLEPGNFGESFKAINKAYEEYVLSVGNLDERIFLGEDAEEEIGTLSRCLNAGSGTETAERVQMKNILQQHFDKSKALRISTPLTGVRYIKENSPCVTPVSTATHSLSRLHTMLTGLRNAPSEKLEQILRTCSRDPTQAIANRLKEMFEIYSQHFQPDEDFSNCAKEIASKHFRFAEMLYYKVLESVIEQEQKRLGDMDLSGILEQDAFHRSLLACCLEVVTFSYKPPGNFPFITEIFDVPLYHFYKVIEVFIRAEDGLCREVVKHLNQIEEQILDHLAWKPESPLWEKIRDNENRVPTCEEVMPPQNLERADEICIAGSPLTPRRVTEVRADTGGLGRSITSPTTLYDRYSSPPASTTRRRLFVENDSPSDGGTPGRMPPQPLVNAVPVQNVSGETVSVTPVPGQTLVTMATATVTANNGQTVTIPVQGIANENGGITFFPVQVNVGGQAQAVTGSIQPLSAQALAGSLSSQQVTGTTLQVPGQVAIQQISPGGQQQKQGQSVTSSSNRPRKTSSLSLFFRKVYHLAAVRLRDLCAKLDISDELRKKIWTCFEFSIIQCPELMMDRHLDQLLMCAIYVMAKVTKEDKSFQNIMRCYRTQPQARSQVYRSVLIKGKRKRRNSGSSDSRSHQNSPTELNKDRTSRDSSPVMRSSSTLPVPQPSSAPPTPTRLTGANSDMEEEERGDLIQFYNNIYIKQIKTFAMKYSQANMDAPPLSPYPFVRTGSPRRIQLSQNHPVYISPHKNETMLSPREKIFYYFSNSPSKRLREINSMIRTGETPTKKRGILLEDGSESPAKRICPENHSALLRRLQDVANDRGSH
UniProt Q8NC44: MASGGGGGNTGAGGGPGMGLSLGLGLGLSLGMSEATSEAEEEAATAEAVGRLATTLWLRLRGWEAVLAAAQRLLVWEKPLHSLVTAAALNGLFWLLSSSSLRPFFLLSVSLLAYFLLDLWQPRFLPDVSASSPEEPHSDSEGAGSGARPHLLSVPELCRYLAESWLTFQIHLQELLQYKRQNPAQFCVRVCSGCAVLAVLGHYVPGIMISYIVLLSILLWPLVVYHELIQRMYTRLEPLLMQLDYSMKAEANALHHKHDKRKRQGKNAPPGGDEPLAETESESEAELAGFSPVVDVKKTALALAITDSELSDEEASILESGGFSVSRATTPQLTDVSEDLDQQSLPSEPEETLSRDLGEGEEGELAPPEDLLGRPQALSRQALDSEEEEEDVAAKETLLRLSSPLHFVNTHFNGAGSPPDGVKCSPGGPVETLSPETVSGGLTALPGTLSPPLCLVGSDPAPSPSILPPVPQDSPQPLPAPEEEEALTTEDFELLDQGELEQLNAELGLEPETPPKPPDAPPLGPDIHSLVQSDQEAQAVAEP
UniProt Q5T481: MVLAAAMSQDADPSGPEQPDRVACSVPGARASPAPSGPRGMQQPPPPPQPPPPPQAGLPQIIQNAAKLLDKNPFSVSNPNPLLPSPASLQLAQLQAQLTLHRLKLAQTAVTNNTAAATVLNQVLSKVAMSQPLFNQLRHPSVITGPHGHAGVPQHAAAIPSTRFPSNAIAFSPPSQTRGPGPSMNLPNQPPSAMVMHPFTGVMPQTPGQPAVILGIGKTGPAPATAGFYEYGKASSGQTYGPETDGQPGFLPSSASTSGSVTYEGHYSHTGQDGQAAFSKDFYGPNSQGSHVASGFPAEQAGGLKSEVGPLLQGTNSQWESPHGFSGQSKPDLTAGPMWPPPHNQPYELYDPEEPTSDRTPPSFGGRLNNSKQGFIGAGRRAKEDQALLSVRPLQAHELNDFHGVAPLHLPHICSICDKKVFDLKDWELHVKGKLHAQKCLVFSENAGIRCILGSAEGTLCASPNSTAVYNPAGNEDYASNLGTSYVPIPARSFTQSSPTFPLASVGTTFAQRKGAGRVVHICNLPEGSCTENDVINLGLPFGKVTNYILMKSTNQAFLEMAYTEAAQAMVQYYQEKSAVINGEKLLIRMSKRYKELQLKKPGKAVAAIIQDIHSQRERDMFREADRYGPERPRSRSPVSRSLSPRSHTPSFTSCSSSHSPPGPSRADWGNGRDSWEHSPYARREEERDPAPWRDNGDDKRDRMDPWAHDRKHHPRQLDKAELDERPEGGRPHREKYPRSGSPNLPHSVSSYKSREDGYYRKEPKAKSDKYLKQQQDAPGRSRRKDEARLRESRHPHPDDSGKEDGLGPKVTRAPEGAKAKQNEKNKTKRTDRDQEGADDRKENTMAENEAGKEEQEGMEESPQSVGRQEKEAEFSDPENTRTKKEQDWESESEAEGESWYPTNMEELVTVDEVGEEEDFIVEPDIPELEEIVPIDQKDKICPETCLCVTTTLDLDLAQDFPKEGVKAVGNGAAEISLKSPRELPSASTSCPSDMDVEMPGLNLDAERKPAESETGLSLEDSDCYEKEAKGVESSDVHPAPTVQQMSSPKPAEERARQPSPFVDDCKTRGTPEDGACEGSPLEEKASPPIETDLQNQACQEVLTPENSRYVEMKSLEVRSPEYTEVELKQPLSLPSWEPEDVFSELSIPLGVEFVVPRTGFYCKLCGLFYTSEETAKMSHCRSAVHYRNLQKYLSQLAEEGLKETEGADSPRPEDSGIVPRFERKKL
UniProt Q8N0V3: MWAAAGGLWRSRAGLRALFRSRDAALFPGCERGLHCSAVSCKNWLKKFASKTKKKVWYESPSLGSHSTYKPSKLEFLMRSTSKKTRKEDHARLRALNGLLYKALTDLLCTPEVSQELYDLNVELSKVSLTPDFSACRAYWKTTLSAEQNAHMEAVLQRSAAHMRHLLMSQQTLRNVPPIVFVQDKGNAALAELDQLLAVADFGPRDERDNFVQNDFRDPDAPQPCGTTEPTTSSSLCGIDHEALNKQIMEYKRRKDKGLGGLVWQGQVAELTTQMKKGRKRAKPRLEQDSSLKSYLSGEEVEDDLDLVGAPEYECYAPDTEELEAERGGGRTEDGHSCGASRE
UniProt O94761: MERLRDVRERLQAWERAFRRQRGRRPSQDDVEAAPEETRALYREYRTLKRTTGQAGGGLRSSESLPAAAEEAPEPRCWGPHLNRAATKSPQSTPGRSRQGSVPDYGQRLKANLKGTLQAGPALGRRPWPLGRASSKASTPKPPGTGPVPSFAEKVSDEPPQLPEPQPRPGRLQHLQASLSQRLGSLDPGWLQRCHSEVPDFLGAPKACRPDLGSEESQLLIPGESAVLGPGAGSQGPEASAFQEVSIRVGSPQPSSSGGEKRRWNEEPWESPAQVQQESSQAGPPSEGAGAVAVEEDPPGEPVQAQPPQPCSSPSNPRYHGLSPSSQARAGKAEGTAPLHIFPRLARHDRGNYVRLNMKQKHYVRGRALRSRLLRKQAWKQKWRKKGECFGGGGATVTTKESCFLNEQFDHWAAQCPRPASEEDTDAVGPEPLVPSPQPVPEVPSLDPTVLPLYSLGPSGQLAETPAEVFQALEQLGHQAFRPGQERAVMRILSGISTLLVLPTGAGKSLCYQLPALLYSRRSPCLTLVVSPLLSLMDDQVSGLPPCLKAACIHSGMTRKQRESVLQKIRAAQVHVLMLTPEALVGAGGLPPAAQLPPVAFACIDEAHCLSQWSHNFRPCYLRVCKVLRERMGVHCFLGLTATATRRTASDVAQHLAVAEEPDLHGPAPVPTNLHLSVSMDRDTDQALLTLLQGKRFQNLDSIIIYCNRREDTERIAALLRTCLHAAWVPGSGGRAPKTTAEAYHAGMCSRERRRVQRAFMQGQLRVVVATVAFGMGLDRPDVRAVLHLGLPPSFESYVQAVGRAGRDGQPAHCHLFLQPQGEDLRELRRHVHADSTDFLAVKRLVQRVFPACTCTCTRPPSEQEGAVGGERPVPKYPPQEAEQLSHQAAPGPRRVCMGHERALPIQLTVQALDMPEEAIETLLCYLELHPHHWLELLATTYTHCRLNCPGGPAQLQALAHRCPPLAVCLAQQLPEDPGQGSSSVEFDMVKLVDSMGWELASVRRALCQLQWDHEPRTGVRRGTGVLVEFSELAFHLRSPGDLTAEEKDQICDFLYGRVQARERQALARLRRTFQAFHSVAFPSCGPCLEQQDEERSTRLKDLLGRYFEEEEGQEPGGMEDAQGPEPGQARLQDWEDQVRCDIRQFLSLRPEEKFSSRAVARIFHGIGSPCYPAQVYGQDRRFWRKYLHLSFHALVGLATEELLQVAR

Legend:
Experiment in all cases: log2 fold change, soluble protein after heating vs DMSO (PISA); higher = thermal stabilisation; K562 lysate, 10 uM; active = over 0.2 and 3.5 SD of the protein, either way, in both replicates (recomputed)
[1] = compound: Cc1cn(-c2cc(NC(=O)c3ccc(C)c(Nc4nccc(-c5cccnc5)n4)c3)cc(C(F)(F)F)c2)cn1 [nilotinib]
Outline: (§1)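 Pellets of K562 cells were dounce-homogenised in PBS pH 7.4 with 1 mM MgCl2, and the crude extract was held at 1 mg/mL protein for a 30 min treatment with 10 μM compound. Aliquots were heated for 3 min over 48°C-58°C and pooled before NP-40 was added to 0.5% at 4°C. The supernatant from 21,000xg for 90 min was quantified by TMTpro 16plex LC-MS/MS with channel sums equalised. Values are reported from duplicates as log-two fold change in thermal stability relative to solvent controls.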

[2] = compound: Cc1nc(Nc2n[nH]c3c2CN(C(=O)N[C@H](CN(C)C)c2ccccc2)C3(C)C)c2sccc2n1
Outline: as §1

[3] = compound: Cc1nc(Nc2ncc(C(=O)Nc3c(C)cccc3Cl)s2)cc(N2CCN(CCO)CC2)n1 [dasatinib]
Outline: as §1

[4] = compound: Cc1ncc(-c2ccnc(Nc3ccc(S(C)(=O)=O)cc3)n2)n1C(C)C
Outline: as §1

[5] = compound: Cn1cc(-c2ccc3c(c2)CCN3C(=O)Cc2cccc(C(F)(F)F)c2)c2c(N)ncnc21
Outline: as §1

[6] = compound: Cn1cc(CNCC2CCN(c3ncc(C(=O)NO)cn3)CC2)c2ccccc21 [quisinostat]
Outline: as §1

[7] = compound: Cn1cncc1[C@@](N)(c1ccc(Cl)cc1)c1ccc2c(c1)c(-c1cccc(Cl)c1)cc(=O)n2C [tipifarnib]
Outline: as §1

[8] = compound: NC(=O)Nc1cc(-c2cccc(F)c2)sc1C(=O)N[C@H]1CCCNC1
Outline: as §1

[9] = compound: NC(=O)c1cnc(N[C@@H]2CCCC[C@@H]2N)nc1Nc1cccc(-n2nccn2)c1
Outline: as §1

[10] = compound: NC1(c2ccc(-c3nc4ccn5c(=O)[nH]nc5c4cc3-c3ccccc3)cc2)CCC1
Outline: as §1

[11] = compound: NCC(=O)Nc1ccc(-n2nc(C(F)(F)F)cc2-c2ccc3c(ccc4ccccc43)c2)cc1
Outline: as §1

[12] = compound: O=C(CCCCCCC(=O)Nc1ccccc1)NO [vorinostat]
Outline: as §1

[13] = compound: O=C(O)c1ccc2c(c1)nc(Nc1cccc(Cl)c1)c1ccncc12 [silmitasertib]
Outline: as §1

[14] = compound: O=C1NC(=O)C(c2cnc3ccccn23)=C1c1cn2c3c(cc(F)cc13)CN(C(=O)N1CCCCC1)CC2
Outline: as §1

[15] = compound: c1cn2cc(-c3ccc4cn[nH]c4c3)nc(Nc3ccc(N4CCOCC4)cc3)c2n1 [entospletinib]
Outline: as §1

Target | log2 fold change [1] | log2 fold change [2] | log2 fold change [3] | log2 fold change [4] | log2 fold change [5] | log2 fold change [6] | log2 fold change [7] | log2 fold change [8] | log2 fold change [9] | log2 fold change [10] | log2 fold change [11] | log2 fold change [12] | log2 fold change [13] | log2 fold change [14] | log2 fold change [15]
RFXAP (UniProt O00287) | inactive: -0.028 | inactive: 0.133 | inactive: -0.008 | inactive: -0.022 | inactive: 0.021 | inactive: -0.034 | inactive: -0.113 | inactive: -0.043 | inactive: 0.029 | inactive: 0.035 | inactive: -0.022 | inactive: -0.034 | inactive: 0.012 | inactive: -0.068 | inactive: -0.081
RGP1 (UniProt Q92546) | inactive: -0.018 | inactive: 0.065 | inactive: -0.027 | inactive: 0 | inactive: -0.039 | inactive: -0.098 | inactive: -0.09 | inactive: 0.099 | inactive: 0.035 | inactive: 0.078 | inactive: -0.01 | inactive: 0.109 | inactive: -0.067 | inactive: 0.032 | inactive: 0.142
REXO1 (UniProt Q8N1G1) | inactive: 0.108 | inactive: -0.036 | – | inactive: 0.052 | – | inactive: -0.039 | inactive: -0.165 | inactive: 0.034 | – | inactive: 0.04 | – | inactive: -0.117 | inactive: 0.096 | inactive: 0.036 | –
RARS2 (UniProt Q5T160) | inactive: -0.055 | inactive: -0.012 | inactive: 0.002 | inactive: -0.005 | inactive: 0.014 | inactive: -0.066 | inactive: -0.022 | inactive: 0.086 | inactive: 0.02 | inactive: -0.111 | inactive: 0 | inactive: -0.027 | inactive: -0.016 | inactive: -0.002 | inactive: 0.064
RGL2 (UniProt O15211) | inactive: -0.315 | inactive: -0.067 | inactive: -0.011 | inactive: -0.059 | inactive: -0.201 | inactive: -0.038 | inactive: -0.155 | inactive: 0.093 | inactive: -0.04 | inactive: 0.05 | – | inactive: -0.121 | inactive: 0.129 | inactive: -0.035 | –
RBM17 (UniProt Q96I25) | inactive: -0.027 | inactive: -0.011 | inactive: -0.048 | inactive: 0.003 | inactive: 0.029 | inactive: -0.014 | inactive: -0.023 | inactive: -0.006 | inactive: -0.005 | inactive: -0.027 | inactive: 0.011 | inactive: -0.185 | inactive: -0.019 | inactive: 0.011 | inactive: 0.009
RFWD3 (UniProt Q6PCD5) | inactive: 0.042 | inactive: -0.066 | inactive: 0.027 | inactive: -0.082 | inactive: 0.004 | inactive: -0.041 | inactive: -0.037 | inactive: 0.003 | – | inactive: -0.053 | inactive: 0.089 | active: -0.444 | inactive: 0.061 | inactive: -0.027 | inactive: 0.043
RELA (UniProt Q04206) | inactive: 0.001 | inactive: -0.017 | – | inactive: 0.001 | inactive: -0.013 | inactive: -0.07 | inactive: -0.001 | inactive: 0.006 | inactive: 0.012 | inactive: 0.002 | inactive: -0.015 | inactive: -0.186 | inactive: -0.002 | inactive: -0.004 | inactive: -0.007
RFNG (UniProt Q9Y644) | inactive: 0.184 | inactive: 0.054 | – | inactive: -0.078 | – | – | inactive: -0.048 | – | – | – | – | – | – | – | –
RGS3 (UniProt P49796) | inactive: 0.159 | inactive: 0.035 | – | inactive: -0.021 | – | inactive: -0.089 | inactive: -0.136 | inactive: 0.061 | inactive: 0.104 | inactive: 0.018 | – | inactive: -0.016 | inactive: -0.09 | inactive: 0.043 | –
RBL2 (UniProt Q08999) | inactive: -0.018 | inactive: 0.032 | inactive: -0.016 | inactive: 0.012 | inactive: 0.081 | inactive: 0.046 | inactive: -0.042 | inactive: -0.055 | inactive: -0.091 | – | – | – | – | inactive: 0.081 | inactive: -0.035
RETREG2 (UniProt Q8NC44) | active: 0.363 | inactive: -0.135 | – | inactive: 0.055 | – | inactive: -0.084 | inactive: -0.076 | inactive: -0.016 | inactive: -0.012 | inactive: -0.022 | inactive: -0.058 | inactive: 0.023 | inactive: 0.015 | inactive: -0.007 | inactive: -0.004
RCBTB1 (UniProt Q8NDN9) | inactive: -0.186 | inactive: -0.01 | – | inactive: 0.217 | – | inactive: 0.079 | inactive: 0.175 | inactive: -0.089 | – | inactive: -0.022 | – | inactive: -0.093 | inactive: 0.107 | inactive: 0.019 | –
REXO4 (UniProt Q9GZR2) | inactive: -0.001 | inactive: -0.009 | inactive: -0.008 | inactive: 0.021 | inactive: 0.008 | inactive: 0.013 | inactive: 0.015 | inactive: 0.03 | inactive: -0.045 | inactive: 0.034 | inactive: 0.03 | inactive: -0.127 | inactive: 0.05 | inactive: -0.035 | inactive: 0.067
RBM20 (UniProt Q5T481) | inactive: 0.166 | inactive: 0.163 | inactive: 0.137 | inactive: 0.038 | inactive: 0.117 | – | inactive: 0.055 | – | – | inactive: 0.148 | inactive: 0.228 | inactive: -0.007 | inactive: -0.033 | – | –
RBFA (UniProt Q8N0V3) | inactive: 0.002 | inactive: -0.011 | – | inactive: 0.046 | – | inactive: 0.163 | inactive: 0.058 | inactive: -0.001 | – | inactive: 0 | – | inactive: 0.058 | inactive: -0.032 | inactive: -0.077 | –
RBM47 | inactive: -0.334 | inactive: 0.018 | inactive: -0.018 | inactive: -0.285 | inactive: -0.031 | – | inactive: 0.101 | – | inactive: 0.066 | inactive: -0.102 | inactive: -0.088 | inactive: -0.33 | inactive: -0.089 | – | –
RECQL4 (UniProt O94761) | inactive: 0.051 | inactive: 0.102 | inactive: -0.007 | inactive: -0.063 | inactive: -0.019 | inactive: -0.094 | inactive: 0.024 | inactive: 0.023 | – | inactive: 0.017 | inactive: -0.003 | inactive: -0.044 | inactive: 0.019 | inactive: 0.022 | inactive: -0.023
RFX3 (UniProt P48380) | inactive: 0.015 | inactive: 0.105 | inactive: -0.024 | inactive: 0.005 | inactive: -0.062 | – | inactive: 0.021 | – | – | – | – | – | – | – | inactive: 0.012
RCHY1 (UniProt Q96PM5) | inactive: 0.046 | inactive: 0.109 | inactive: -0.07 | inactive: 0.149 | inactive: -0.121 | inactive: 0.063 | inactive: 0.053 | inactive: -0.075 | inactive: -0.063 | inactive: -0.034 | inactive: -0.066 | inactive: -0.008 | inactive: 0.025 | inactive: -0.006 | inactive: -0.055

Random excerpt: 2 records from the list, in no set order.
Target | log2 fold change [1] | log2 fold change [2] | log2 fold change [3] | log2 fold change [4] | log2 fold change [5] | log2 fold change [6] | log2 fold change [7] | log2 fold change [8] | log2 fold change [9] | log2 fold change [10] | log2 fold change [11] | log2 fold change [12] | log2 fold change [13] | log2 fold change [14] | log2 fold change [15]
RFNG (UniProt Q9Y644) | inactive: 0.184 | inactive: 0.054 | – | inactive: -0.078 | – | – | inactive: -0.048 | – | – | – | – | – | – | – | –
RECQL4 (UniProt O94761) | inactive: 0.051 | inactive: 0.102 | inactive: -0.007 | inactive: -0.063 | inactive: -0.019 | inactive: -0.094 | inactive: 0.024 | inactive: 0.023 | – | inactive: 0.017 | inactive: -0.003 | inactive: -0.044 | inactive: 0.019 | inactive: 0.022 | inactive: -0.023
